Results from patent US12195442B2, “(Hetero)arylimidazole compound and harmful organism control agent” (Nippon Soda Co., Ltd., priority 2018, dated 2025).
Some entries share one result that the patent states for a list of compounds.

Experiments:
Format in all cases: in vivo
Plutella xylostella = experiment: Test Example 3: efficacy on Plutella xylostella (cabbage leaf dip); details: 125 ppm; cabbage leaves dipped 30 seconds; second instar larvae; after 3 days
Aphis gossypii = experiment: Test Example 9: efficacy on Aphis gossypii (hydroponic root uptake, cucumber); details: 31 ppm; hydroponic culture of cucumber seedlings; nymphs; after 6 days
Mythimna separata = experiment: Test Example 2: efficacy on Mythimna separata (corn leaf dip); details: 125 ppm; corn leaves dipped; second instar larvae; after 6 days
Spodoptera litura = experiment: Test Example 4: efficacy on Spodoptera litura (cabbage leaf dip); details: 125 ppm; cabbage leaves dipped 30 seconds; second instar larvae; after 6 days
Nilaparvata lugens = experiment: Test Example 7: efficacy on Nilaparvata lugens (rice seedling dip); details: 125 ppm; young rice seedlings dipped 30 seconds; second instar larvae; after 7 days
Aphis craccivora = experiment: Test Example 5: efficacy on Aphis craccivora (spray on black-eyed peas); details: 125 ppm; sprayed to black-eyed peas parasitized by nymphs; after 4 days

Work on `CCS(=O)(=O)c1cc(C2CC2)cnc1-c1ncc(C=C(Cl)C(F)(F)F)n1C` [d-33] yielded an insecticidal rate (Plutella xylostella) of no less than 80% and an insecticidal rate (Aphis gossypii) of no less than 80%.
`CCS(=O)(=O)c1cc(C2CC2)cnc1-c1ncc(C=C(Cl)C(F)(F)F)n1C` [d-2, 2-(5-(2-chloro-3,3,3-trifluoroprop-1-en-1-yl)-1-methyl-1H-imidazol-2-yl)-5-cyclopropyl-3-(ethylsulfonyl)pyridine] showed an insecticidal rate (Mythimna separata) of no less than 80%, an insecticidal rate (Spodoptera litura) of no less than 80% and an insecticidal rate (Nilaparvata lugens) of no less than 80%.
In the case of `CCS(=O)(=O)c1cc(C2CC2)cnc1-c1ncc(C=C(Cl)C(F)(F)F)n1C` [d-34], the insecticidal rate (Aphis craccivora) is reported as no less than 80%.
